These are yes or no findings as the source states them, for the method shown. For some of these results: Binding seen in cells or lysates may run through a third protein. Some results given as binding are weak or reduced against the parent protein; the word gives no strength. Each block holds one substance with its values, some of them ahead of it.
What was measured:
[1] = target: Flag-PHB2, purified (UniProt Q99623); test: pull-down; Flag-pull down in vitro: purified Flag-PHB2 or Myc-PDI immobilized on the beads, incubated with purified Myc-PDI or Flag-PHB2; 4 h at 4 °C; immunoblot with anti-PDI or anti-PHB2; both purified
[2] = target: Protein disulfide isomerase (PDI), endogenous in MEF cells (mouse (endogenous in MEF)) (UniProt P09103); test: co-IP; endogenous proteins in lysates of HCT116 or MEF cells, untreated or 24 h after γ-ray (4 Gy) or cisplatin (20 μM); primary antibody or non-specific IgG with protein G-agarose beads, 4 °C overnight, five washes with RIPA buffer; western blot
[3] = target: GRP78, endogenous in HCT116 cells (human (endogenous in HCT116)) (UniProt P11021); test: as above
[4] = target: GRP78, endogenous in MEF cells (mouse (endogenous in MEF)) (UniProt P20029); test: as above

By UniProt entry, the sequences of proteins in these tests, tags left out. Residues count along the entry.
UniProt Q99623: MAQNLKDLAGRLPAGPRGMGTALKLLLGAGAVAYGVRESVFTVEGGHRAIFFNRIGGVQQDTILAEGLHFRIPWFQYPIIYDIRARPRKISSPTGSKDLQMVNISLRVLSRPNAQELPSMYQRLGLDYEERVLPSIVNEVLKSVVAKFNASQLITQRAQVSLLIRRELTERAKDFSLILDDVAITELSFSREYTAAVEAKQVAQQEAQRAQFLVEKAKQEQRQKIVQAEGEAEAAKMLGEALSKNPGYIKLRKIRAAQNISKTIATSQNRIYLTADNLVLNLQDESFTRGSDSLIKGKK
UniProt P09103, residues 20-509: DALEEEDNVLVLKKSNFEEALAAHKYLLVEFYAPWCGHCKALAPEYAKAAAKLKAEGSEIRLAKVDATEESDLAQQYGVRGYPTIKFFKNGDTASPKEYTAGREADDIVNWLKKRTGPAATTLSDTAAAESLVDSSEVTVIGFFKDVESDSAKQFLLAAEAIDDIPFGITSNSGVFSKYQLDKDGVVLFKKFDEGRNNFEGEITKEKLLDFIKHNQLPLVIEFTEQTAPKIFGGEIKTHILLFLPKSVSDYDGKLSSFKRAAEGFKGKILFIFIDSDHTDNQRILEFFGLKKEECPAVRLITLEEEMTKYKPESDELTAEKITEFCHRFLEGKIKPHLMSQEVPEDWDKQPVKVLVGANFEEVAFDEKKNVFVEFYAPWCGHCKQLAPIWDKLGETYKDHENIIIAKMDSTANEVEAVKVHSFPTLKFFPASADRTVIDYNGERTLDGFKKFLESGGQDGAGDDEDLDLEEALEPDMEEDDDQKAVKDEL
UniProt P11021, residues 19-654: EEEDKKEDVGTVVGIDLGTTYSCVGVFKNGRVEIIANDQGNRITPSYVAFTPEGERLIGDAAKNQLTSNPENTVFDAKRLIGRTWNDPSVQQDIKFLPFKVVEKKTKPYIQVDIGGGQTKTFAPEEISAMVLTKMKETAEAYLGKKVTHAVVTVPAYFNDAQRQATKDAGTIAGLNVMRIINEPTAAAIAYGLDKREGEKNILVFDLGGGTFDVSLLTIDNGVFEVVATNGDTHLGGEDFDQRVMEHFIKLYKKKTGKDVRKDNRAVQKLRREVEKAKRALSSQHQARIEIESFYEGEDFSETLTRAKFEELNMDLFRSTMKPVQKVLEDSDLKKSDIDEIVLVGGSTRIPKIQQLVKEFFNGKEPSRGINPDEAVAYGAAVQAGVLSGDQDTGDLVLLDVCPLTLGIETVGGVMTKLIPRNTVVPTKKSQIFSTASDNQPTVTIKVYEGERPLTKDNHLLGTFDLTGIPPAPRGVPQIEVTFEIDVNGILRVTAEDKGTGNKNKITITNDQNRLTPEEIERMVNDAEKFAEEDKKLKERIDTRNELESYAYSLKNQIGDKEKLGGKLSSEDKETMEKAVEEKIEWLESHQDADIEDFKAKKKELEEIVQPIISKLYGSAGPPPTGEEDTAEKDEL
UniProt P20029, residues 20-655: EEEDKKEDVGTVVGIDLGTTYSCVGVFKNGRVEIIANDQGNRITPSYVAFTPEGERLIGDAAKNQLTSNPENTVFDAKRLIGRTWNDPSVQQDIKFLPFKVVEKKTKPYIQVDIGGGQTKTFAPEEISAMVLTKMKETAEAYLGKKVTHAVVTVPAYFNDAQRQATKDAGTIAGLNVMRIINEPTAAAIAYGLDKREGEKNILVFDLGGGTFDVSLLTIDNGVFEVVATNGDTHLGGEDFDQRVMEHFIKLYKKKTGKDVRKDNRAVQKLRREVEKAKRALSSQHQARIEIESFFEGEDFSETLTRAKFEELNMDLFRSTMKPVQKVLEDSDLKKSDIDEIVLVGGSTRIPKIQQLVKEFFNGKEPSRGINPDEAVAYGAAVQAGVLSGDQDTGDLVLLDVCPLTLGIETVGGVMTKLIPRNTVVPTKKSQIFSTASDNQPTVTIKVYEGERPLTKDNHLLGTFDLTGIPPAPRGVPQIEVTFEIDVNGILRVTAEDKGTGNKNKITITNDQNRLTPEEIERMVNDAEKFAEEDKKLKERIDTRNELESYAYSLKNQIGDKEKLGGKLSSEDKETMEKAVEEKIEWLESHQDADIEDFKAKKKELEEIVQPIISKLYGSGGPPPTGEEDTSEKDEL
UniProt P07237, residues 18-508: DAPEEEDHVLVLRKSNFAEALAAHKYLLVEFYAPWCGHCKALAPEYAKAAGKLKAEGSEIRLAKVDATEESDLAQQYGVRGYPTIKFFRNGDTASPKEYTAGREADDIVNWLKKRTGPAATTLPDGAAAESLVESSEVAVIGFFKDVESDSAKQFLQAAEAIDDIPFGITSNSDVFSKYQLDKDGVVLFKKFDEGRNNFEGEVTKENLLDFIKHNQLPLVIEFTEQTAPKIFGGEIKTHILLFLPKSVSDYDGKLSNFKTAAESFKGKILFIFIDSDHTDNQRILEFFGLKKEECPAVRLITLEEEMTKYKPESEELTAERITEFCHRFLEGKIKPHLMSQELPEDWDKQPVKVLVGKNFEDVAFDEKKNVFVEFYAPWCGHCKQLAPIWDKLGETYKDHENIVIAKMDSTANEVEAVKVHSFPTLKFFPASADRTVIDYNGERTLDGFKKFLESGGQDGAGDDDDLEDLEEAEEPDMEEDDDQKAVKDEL
UniProt O35129: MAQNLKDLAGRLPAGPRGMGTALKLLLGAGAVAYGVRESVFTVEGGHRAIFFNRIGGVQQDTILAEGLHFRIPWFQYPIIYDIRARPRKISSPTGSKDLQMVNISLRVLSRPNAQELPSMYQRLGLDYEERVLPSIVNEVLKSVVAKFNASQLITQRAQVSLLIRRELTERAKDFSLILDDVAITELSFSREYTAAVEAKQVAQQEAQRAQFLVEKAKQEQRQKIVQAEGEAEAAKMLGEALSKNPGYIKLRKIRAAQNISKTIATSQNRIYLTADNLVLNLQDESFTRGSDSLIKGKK

binding [1]: binds
Substance: Myc-PDI, purified (from UniProt P07237 18-508)

binding [2]: binds
Substance: PHB2, endogenous in MEF cells (from UniProt O35129 1-299)

binding [3]: binds
Substance: Protein disulfide isomerase (PDI), endogenous in HCT116 cells (from UniProt P07237 18-508)

binding [4]: binds
Substance: Protein disulfide isomerase (PDI), endogenous in MEF cells (from UniProt P09103 20-509)

Reference: PMC9537141
